In article PMC12238220:
These are yes or no findings as the source states them, for the method shown. In cells and extracts the contact can be indirect. Some results given as binding are weak or reduced against the parent protein; the word gives no strength.

Protein sequences, listed by entry. Tags and fused reporters are not part of them. Residues count along the entry.
UniProt O60563: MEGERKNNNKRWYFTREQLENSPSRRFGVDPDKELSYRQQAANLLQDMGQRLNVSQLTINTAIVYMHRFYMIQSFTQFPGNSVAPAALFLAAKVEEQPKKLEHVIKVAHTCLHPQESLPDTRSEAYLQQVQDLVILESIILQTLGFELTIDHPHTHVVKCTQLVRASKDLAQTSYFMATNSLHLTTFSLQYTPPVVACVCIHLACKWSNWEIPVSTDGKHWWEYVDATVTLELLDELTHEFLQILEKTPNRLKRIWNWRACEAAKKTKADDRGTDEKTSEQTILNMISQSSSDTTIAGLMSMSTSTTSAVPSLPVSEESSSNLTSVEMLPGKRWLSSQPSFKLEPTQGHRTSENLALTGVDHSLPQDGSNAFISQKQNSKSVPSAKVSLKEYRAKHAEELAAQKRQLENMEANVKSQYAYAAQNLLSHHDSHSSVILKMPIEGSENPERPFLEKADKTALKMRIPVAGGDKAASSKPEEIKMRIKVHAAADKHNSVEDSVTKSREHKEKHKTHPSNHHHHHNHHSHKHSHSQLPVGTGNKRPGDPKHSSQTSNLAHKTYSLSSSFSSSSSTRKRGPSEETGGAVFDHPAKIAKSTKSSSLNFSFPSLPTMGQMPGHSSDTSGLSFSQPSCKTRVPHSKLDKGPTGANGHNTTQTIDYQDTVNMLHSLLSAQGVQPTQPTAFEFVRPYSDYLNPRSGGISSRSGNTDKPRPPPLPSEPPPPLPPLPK
UniProt P35869, residues 11-848: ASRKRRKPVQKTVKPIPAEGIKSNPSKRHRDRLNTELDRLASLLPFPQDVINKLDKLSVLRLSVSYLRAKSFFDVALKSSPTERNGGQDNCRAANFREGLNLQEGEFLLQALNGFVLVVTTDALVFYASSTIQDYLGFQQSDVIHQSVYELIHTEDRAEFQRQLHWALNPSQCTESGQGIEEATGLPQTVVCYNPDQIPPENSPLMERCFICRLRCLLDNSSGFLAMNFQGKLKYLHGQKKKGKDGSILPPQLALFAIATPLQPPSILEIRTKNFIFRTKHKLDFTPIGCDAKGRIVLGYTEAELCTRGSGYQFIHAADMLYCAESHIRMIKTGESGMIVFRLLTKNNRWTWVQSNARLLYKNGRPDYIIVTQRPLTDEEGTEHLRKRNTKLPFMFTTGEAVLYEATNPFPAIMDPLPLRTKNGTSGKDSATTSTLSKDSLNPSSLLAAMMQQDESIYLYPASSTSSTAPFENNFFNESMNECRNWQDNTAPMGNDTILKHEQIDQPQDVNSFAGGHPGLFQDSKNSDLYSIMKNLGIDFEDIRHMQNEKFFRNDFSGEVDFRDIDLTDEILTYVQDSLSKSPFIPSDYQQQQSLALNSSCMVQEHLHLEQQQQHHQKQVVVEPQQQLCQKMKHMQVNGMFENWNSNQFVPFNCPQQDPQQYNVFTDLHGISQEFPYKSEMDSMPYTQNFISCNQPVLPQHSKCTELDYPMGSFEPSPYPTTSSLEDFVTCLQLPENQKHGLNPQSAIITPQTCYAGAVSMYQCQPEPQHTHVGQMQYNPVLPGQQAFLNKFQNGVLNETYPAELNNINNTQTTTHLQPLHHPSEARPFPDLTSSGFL

Molecular target: cyclin T1 (human (endogenous in HepG2)) (UniProt O60563)
Experiment: co-IP; lysate of HepG2 cells infected with HSV-1 (MOI=10), collected after 6 h; antibodies against Cyclin T1, AhR, RNA Pol II or IgG (25 ug/ml) on Protein A+G magnetic beads; Western blot for RNAP-II, AhR, cyclin T1, VP16

binding: binds
Substance: aryl hydrocarbon receptor (from UniProt P35869 11-848)
